Measurements as given in PubChem BioAssay AID1347076 (National Center for Advancing Translational Sciences (NCATS), 2019).
Where “and” joins values, the source holds several entries; their conditions need not be identical. Identical values can stand only once. Screen size: about 400,000 compounds; about 13,000 (3.2%) were called active. The shares of active, inactive and inconclusive entries below differ from those in the screen. The call rests on the fitted dose curve; in most records, active means well fitted cell-killing curve with a large enough effect; inconclusive means small, poorly fitted or top-dose-only effect, or effect the other way; inactive means flat fitted curve, though single readings scatter. Where the call is inconclusive, the potency comes from a doubtful curve fit.

Assay: qHTS assay for MDR1-selective chemotherapeutics: Primary screen using the drug-selected MDR subline cells KB-V1; further: nearly all actives have a fitted effect of over 60% in size
Conditions: KB-V1 MDR cells viability, CellTiter-Glo, 72 h; activity change, negative = cytotoxicity: at 46.1 µM (top of the series)
Method in brief: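 KB-V1 MDR subline cells in DMEM (phenol-red free, 10% FBS) exposed to compounds in qHTS concentration series for 72 h at 37 degrees C. Viability read by CellTiter-Glo luminescence; concentration-effect curves fitted after normalization and correction.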
On the % scale 0 is the no-effect control and ±100 the full control effect; potency means the concentration at half of the fitted maximal effect.

SMILES	Potency	activity change, negative = cytotoxicity
Cc1cc(/C=N/NC(=O)Cn2c3ccccc3c(=O)c3ccccc32)c(C)n1-c1ccc(Cl)cc1	inactive	–
CCOc1ccc2nc(S(=O)(=O)NC(=O)C3(C)CCN3C(=O)c3cccc(F)c3)sc2c1 (stereo unspecified)	inactive	–
Cc1ccc(C)c(N(CC(=O)NN=C2CCCCCCC2)S(C)(=O)=O)c1	inconclusive: 10.3 µM [rising, partial curve]	–
Nc1ccccc1N=Nc1ccccc1N	inconclusive: 0.651 µM [rising, full curve, poor fit]	–
CC1CCCCN1C(=O)c1cccc(NC2=C(Cl)C(=O)N(Cc3ccccc3)C2=O)c1 (stereo unspecified)	inconclusive: 18.4 µM [cytotoxic, single point]	–
COc1ccc2[nH]c3c(NCCCOC(C)C)ncnc3c2c1	inconclusive: 20.6 µM [cytotoxic, single point]	–
Cc1ccc(C(=O)N2CCN(c3ccc(NC(=O)c4ccc5c(c4)OCCO5)cc3)CC2)cc1	inconclusive: 32.6 µM [cytotoxic, single point]	–
CCn1cc(/C=C(\NC(=O)c2cc(OC)c(OC)c(OC)c2)C(=O)N2CCOCC2)c2ccccc21	inactive	–
C[C@]12C[C@H](O)[C@H]3[C@@H](CCC4=CC(=O)CC[C@@]43C)[C@@H]1CC[C@@H]2C(=O)CO	inconclusive: 23.1 µM [cytotoxic, single point]	–
COc1ccc(OC)c(NC(=O)C2CCCN(S(=O)(=O)c3cccc4cccnc34)C2)c1 (stereo unspecified)	inconclusive: 20.6 µM [cytotoxic, partial curve, poor fit]	–
COc1cc(C(=O)Nc2cccc(-c3nc4ncccc4o3)c2C)cc(OC)c1OC	inactive	–
CC(C)OCCCNC(=O)C1CCC(CNS(=O)(=O)c2ccccc2)CC1 (stereo unspecified)	inconclusive: 16.4 µM [cytotoxic, single point]	–
N#C/C(=C\c1c(N(Cc2ccccc2)Cc2ccccc2)nc2ccccn2c1=O)C(N)=O	inconclusive: 16.4 µM [cytotoxic, single point]	–
CCc1ccc(-n2c(SCc3ccccc3F)nc3[nH]ncc3c2=O)cc1	inconclusive: 29.1 µM [cytotoxic, partial curve, poor fit]	–
O=C(CCc1nc(CN2CCN(S(=O)(=O)c3ccc(F)cc3)CC2)no1)N1CCCCC1	inactive	–
CCOC(=O)Nc1ccc(S(=O)(=O)N(C)C(C)C)cc1	inconclusive: 16.4 µM [cytotoxic, partial curve]	–
CCOC(=O)C1=CCN(S(=O)(=O)c2cccc(Cl)c2)C1c1ccc(F)cc1 (stereo unspecified)	inconclusive: 20.6 µM [cytotoxic, single point]	–
CCOCCCNc1nc(C)nc2c1nnn2Cc1c(F)cccc1Cl	inconclusive: 29.1 µM [cytotoxic, single point]	–
C#CCOc1ccc(C2C3=C(CC(C)(C)CC3=O)N(CC(=O)O)C3=C2C(=O)CC(C)(C)C3)cc1	inconclusive: 29.1 µM [rising, single point]	–
CC(C)Nc1cc(C(F)(F)F)nc(-c2ccccn2)n1	inactive	–
O=C(NCCNc1ccc(Cl)cc1[N+](=O)[O-])c1cccnc1	inconclusive: 13 µM [cytotoxic, partial curve, poor fit]	–
O=[N+]([O-])c1cccc(NC(=S)NCCc2ccccc2)c1	inconclusive: 29.1 µM [cytotoxic, single point]	–

SMILES	Potency	activity change, negative = cytotoxicity
CCCCCC(=O)Nc1cc2[nH]c(=O)cc(COC)c2cc1C	inactive	–
Cc1ccc(-n2ncc3c(=O)n(CC(=O)N4CCN(c5ccccc5)CC4)cnc32)cc1C	inconclusive: 2.59 µM [cytotoxic, partial curve]	–
O=C(Nc1ccn(Cc2ccccc2F)n1)c1ccc(COc2ccc(Cl)cc2Cl)o1	inconclusive: 20.6 µM [cytotoxic, single point]	–
Cc1ccc(O)c(C(=O)c2cnn(-c3ccccc3)c2)c1	inconclusive: 14.6 µM [cytotoxic, partial curve]	–
COc1ccc(C(=O)NCCn2cc(SCC(=O)Nc3cccc(C)c3)c3ccccc32)cc1	inconclusive: 13 µM [cytotoxic, single point]	–
CC(=O)Nc1nc2cc(C(N)=O)ccc2s1	inconclusive: 29.1 µM [rising, single point]	–
CCOC(=O)C1CCN(S(=O)(=O)c2ccc3c(c2)CC(C)N3C(=O)C2CC2)CC1 (stereo unspecified)	inconclusive: 29.1 µM [cytotoxic, single point]	–
O=C(Cn1nnc(-c2ccc(CN3CCOCC3)cc2)n1)N1CCCc2ccccc21	inconclusive: 10.3 µM [cytotoxic, partial curve, poor fit]	–
Cc1ccc(-c2nc3ccccc3s2)cc1NC(=S)NC(=O)c1cccc2ccccc12	inconclusive: 3.26 µM [cytotoxic, partial curve, poor fit]	–
COc1cc(OC)c(NS(=O)(=O)c2cccc(C(=O)OCC(=O)NCC3CCCO3)c2)cc1Cl (stereo unspecified)	inconclusive: 18.4 µM [rising, partial curve]	–
CCCCNc1c(-c2cccnc2)nc2nc(C)cc(C)n12	inconclusive: 11.6 µM [cytotoxic, partial curve]	–
Cc1ccc(S(=O)(=O)N2CCN(CC(=O)N/N=C/c3ccc(Br)s3)CC2)cc1	inconclusive: 10.3 µM [cytotoxic, partial curve]	–
CCOC(=O)C1CCN(C(=O)Cn2c(=O)cc(C)c3c(C)nn(C)c32)CC1	inconclusive: 8.2 µM [cytotoxic, partial curve]	–
CCOc1cccc(-c2cc(C(=O)N/N=C/c3ccc(OC)c(CN4CCOCC4)c3)c3ccccc3n2)c1	inactive	–
COc1ccc(/C=C/C(=O)Nc2cc(C(F)(F)F)ccc2Cl)cc1OC	active: 20.6 µM	–
Cc1cc(N2CCCCC2)nc2ccc(NC(=O)c3ccc(Br)o3)cc12	inconclusive: 29.1 µM [cytotoxic, single point]	–
COc1ccc2c(c1)OC[C@H]1[C@H]2N2C(=O)[C@H](C)NC(=O)[C@@]2(C)[C@H]1c1ccccc1	inactive	–
CCOC(=O)c1ccc(NC(=O)CCn2nnc3ccccc32)cc1	inactive	–
CCN(CC)S(=O)(=O)c1ccc(NC(=O)c2cccs2)cc1	inactive	–
Cc1ccc(C)n1-c1c(C(=O)NCCC(C)C)sc2ncccc12	inactive	–
OCCN1CCN(CCCc2c3c(cc4c2CCC4)CCC3)CC1	inconclusive: 10.3 µM [cytotoxic, partial curve]	–
CN(Cc1cccc(C(F)(F)F)c1)C(=O)C1CCC(=O)N(CC2CCCCC2)C1 (stereo unspecified)	inconclusive: 18.4 µM [cytotoxic, partial curve, poor fit]	–

SMILES	Potency	activity change, negative = cytotoxicity
Cc1ccc(-c2c[nH]c(=S)n2-c2ccccc2)cc1	inactive	–
Cc1ccc(C(=O)N/C(=C\c2ccco2)C(=O)NCCCn2ccnc2)cc1	–	inconclusive: 2.26%
C=C1NN(C(C)C(=O)O)C(=O)N1c1ccc(OCc2ccccc2)cc1 (stereo unspecified)	inactive	–
CCc1nn(-c2ccccc2)c2nc(-c3cccc(OC)c3)c3cc(OC)c(OC)cc3c12	inactive	–
C=C(C)Cn1c(=O)c2c(nc3n2CCCN3Cc2ccccc2)n(C)c1=O	inconclusive: 2.59 µM [cytotoxic, full curve]	–
Clc1ccccc1-c1nn2c(-c3ccncc3)nnc2s1	inconclusive: 18.4 µM [cytotoxic, partial curve]	–
COC(=O)c1ccccc1COc1cccn2c(N(C)CC3CC3)c(C)nc12	active: 14.6 µM	–
COc1ccc2oc(C(=O)N3CCN(C/C=C/c4ccccc4)CC3)c(C)c2c1	inactive	–
O=c1ccc(-c2nc3ccccc3n2Cc2ccc(Cl)cc2)c[nH]1	inactive	–
COc1cc(C(=O)Nc2nc3nc(-c4ccccc4)cc(=O)n3[nH]2)cc(OC)c1OC	inconclusive: 18.4 µM [rising, partial curve, poor fit]	–
O=C(NC1CCCCC1)c1cc(Nc2cccc(C(F)(F)F)c2)nc2ccccc12	inactive	–
Cc1ccc(NC(=O)C2CCCN2C(=O)NC2CCCCC2)c(C)c1 (stereo unspecified)	inactive	–
COc1ccc(C(CC(=O)Nc2ccccc2OC)n2cccc2)cc1 (stereo unspecified)	inconclusive: 9.2 µM [cytotoxic, partial curve, poor fit]	–
Cc1cnc(C(=O)N2CCN(S(=O)(=O)c3cc(C(F)(F)F)cc(C(F)(F)F)c3)CC2)cn1	inconclusive: 25.9 µM [cytotoxic, partial curve, poor fit]	–
C[C@H](NC(=O)c1nc[nH]c1C(=O)N[C@H](C)c1ccccc1)C(=O)OC(C)(C)C	inconclusive: 29.1 µM [cytotoxic, single point]	–
Cc1ccn2c(Nc3ccccc3C)c(-c3ccccn3)nc2c1	inconclusive: 5.8 µM [cytotoxic, partial curve, poor fit] and inconclusive: 731 nM [cytotoxic, full curve]	–
Nc1ccc(NC(=O)NC2CCCCC2)cc1[N+](=O)[O-]	inconclusive: 2.06 µM [rising, full curve, poor fit]	–
O=C(NC(=S)Nc1cc(-c2nc3ccccc3[nH]2)ccc1Cl)c1ccc2c(c1)OCO2	active: 7.31 µM	–
CCN(Cc1ccccc1)C(=O)c1nc(-c2cccc(F)c2)n2c1CCCCC2	inactive	–
O=C1NC(Cc2ccc(O)cc2)c2nc3ccc(F)cc3c(=O)n2-c2cc3ccccc3cc21 (stereo unspecified)	inconclusive: 20.6 µM [cytotoxic, single point]	–
Cc1ccc(N(Cc2cc3ccc(C)cc3[nH]c2=O)C(=O)c2ccco2)cc1	inconclusive: 7.31 µM [cytotoxic, partial curve]	–
Cc1cccc(N2CCN(C(=O)NCc3noc4ccccc34)CC2)c1C	inconclusive: 29.1 µM [cytotoxic, single point]	–
